We go through 39 sequences from paper PMC7862700.

Only a part is listed here, and it is no random draw. Some of the results follow. For part of these data: The exact form of the protein is not confirmed.

One assay deals with T1, ETV4 (UniProt P43268).
T1 sequence: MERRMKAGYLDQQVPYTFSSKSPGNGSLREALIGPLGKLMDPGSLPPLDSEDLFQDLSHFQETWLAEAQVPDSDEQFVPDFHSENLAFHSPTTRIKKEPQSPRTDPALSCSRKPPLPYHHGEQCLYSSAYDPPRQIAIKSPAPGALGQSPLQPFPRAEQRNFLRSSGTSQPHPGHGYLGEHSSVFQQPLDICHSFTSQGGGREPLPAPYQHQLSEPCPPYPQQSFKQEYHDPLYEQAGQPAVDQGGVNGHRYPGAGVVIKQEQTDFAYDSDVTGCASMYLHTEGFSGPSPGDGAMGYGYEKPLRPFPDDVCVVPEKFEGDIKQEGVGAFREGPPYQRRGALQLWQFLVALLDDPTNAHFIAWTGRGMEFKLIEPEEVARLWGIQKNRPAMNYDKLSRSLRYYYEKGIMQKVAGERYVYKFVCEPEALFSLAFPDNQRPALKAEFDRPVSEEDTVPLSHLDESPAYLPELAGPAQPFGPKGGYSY
In words: DAPPL (digital affinity profiling via proximity ligation, sequencing). To be noted: 10 mM Tris-HCl pH 7.5, 50 mM NaCl, 1 mM DTT, 4% glycerol, room temperature, 30 min; GST-TFs on glutathione beads, 16-mer random dsDNA library, 0.1% …; high values mean tight binding; double strand, one strand shown; scale: fold enrichment (6-mer frequency, TF over GST control).
As for CCTTGG, the binding signal came out at 1.34.

In turn, ATAGTA showed a binding signal of 1.16.

On to CCAAAA, for which the binding signal was determined as 1.17.

Take TAATGC: the binding signal came out at 1.13.

Take CTCTGA: the binding signal worked out at 1.22.

Regarding GAAAAG, the binding signal was 1.03.

As to TCTTTA, the binding signal was found to be 1.32.

Sequence CCGCAC displayed a binding signal of 1.54.

For the sequence CTTTCA, the binding signal was 1.35.

TTGATG yielded a binding signal of 1.69.

GGCTCA showed a binding signal of 1.25.

AGCTCC: the binding signal was determined as 1.35.

The sequence CGTCCC had a binding signal of 1.3.

With GAACTC, the binding signal is 1.27.

AAATTG: the binding signal was found to be 1.25.

For ACCAAC, the binding signal was determined as 1.19.

For TTTATG, the binding signal was 1.25.

For the sequence TGGTCT, the binding signal came to 1.73.

GCAAAA showed a binding signal of 1.07.

Sequence TTCAAG came in with a binding signal of 1.29.

Consider GTAAAC, for which the binding signal was 1.22.

For TCCCTA, the binding signal came to 1.38.

The sequence TTTAGC yielded a binding signal of 1.08.

Consider GCATTC, for which the binding signal was determined as 1.15.

CGCTCA returned a binding signal of 1.21.

With TGCTTT, the binding signal is 1.11.

In turn, TAAAAG displayed a binding signal of 1.13.

CGACGT showed a binding signal of 1.11.

AAACGG: the binding signal was determined as 1.2.

CGTATT yielded a binding signal of 1.09.

Take ACTGCG: the binding signal was found to be 1.27.

In turn, CAACAT came in with a binding signal of 1.21.

In turn, AACCAA came in with a binding signal of 1.3.

The sequence TCTGTT showed a binding signal of 1.45.

Take TGACGA: the binding signal was 1.1.

TCCTAT yielded a binding signal of 1.43.

With ATTTGA, the binding signal was 1.27.

As to CGATAA, the binding signal is 1.1.

Take ATCATT: the binding signal was found to be 1.06.

The next assay deals with T2, ERF (UniProt P50548).
T2 sequence: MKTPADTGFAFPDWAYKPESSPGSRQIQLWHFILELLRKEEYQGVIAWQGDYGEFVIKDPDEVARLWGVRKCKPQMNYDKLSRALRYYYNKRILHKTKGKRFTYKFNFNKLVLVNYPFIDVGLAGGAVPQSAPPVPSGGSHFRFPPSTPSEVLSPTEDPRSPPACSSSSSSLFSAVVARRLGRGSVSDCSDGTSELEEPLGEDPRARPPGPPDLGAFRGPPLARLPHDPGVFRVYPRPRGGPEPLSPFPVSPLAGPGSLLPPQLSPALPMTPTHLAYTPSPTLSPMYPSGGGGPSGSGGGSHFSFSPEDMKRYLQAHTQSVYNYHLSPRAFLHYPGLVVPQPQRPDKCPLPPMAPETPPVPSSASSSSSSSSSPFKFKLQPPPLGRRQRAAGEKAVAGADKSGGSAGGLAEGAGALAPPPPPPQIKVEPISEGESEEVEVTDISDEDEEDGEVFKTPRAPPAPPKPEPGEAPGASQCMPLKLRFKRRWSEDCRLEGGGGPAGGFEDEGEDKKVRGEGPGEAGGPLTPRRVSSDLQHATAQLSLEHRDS
Described as above. The settings on record: 10 mM Tris-HCl pH 7.5, 50 mM NaCl, 1 mM DTT, 4% glycerol, room temperature, 30 min; GST-TFs on glutathione beads, 16-mer random dsDNA library, 0.1% …; high values mean tight binding; double strand, one strand shown; scale: fold enrichment (6-mer frequency, TF over GST control).
Turning to CCTTGG, the binding signal worked out at 1.23.

In turn, ATAGTA yielded a binding signal of 1.23.

On to CCAAAA, for which the binding signal is 1.16.

The sequence TAATGC displayed a binding signal of 1.07.

Regarding CTCTGA, the binding signal worked out at 1.22.

GAAAAG: the binding signal stood at 1.

Turning to TCTTTA, the binding signal was 1.1.

For the sequence CCGCAC, the binding signal was determined as 1.46.

Consider CTTTCA, for which the binding signal turned out to be 1.44.

The sequence TTGATG displayed a binding signal of 1.66.

Consider GGCTCA, for which the binding signal worked out at 1.3.

As for AGCTCC, the binding signal amounted to 1.24.

The sequence CGTCCC gave a binding signal of 1.35.

Regarding GAACTC, the binding signal amounted to 1.11.

Regarding AAATTG, the binding signal is 1.3.

Sequence ACCAAC registered a binding signal of 1.24.

As to TTTATG, the binding signal stood at 1.31.

As for TGGTCT, the binding signal was determined as 1.52.

GCAAAA: the binding signal was 1.14.

Turning to TTCAAG, the binding signal worked out at 1.27.

GTAAAC came in with a binding signal of 1.27.

TCCCTA: the binding signal amounted to 1.43.

The sequence TTTAGC showed a binding signal of 1.19.

With GCATTC, the binding signal is 1.16.

CGCTCA yielded a binding signal of 1.2.

In turn, TGCTTT yielded a binding signal of 1.29.

With TAAAAG, the binding signal turned out to be 1.2.

Turning to CGACGT, the binding signal amounted to 1.17.

As to AAACGG, the binding signal amounted to 1.17.

The sequence CGTATT yielded a binding signal of 1.08.

In turn, ACTGCG displayed a binding signal of 1.26.

For the sequence CAACAT, the binding signal was 1.23.

AACCAA displayed a binding signal of 1.25.

Sequence TCTGTT yielded a binding signal of 1.43.

Consider TGACGA, for which the binding signal turned out to be 1.14.

TCCTAT registered a binding signal of 1.56.

The sequence ATTTGA yielded a binding signal of 1.14.

In turn, CGATAA gave a binding signal of 1.11.

As to ATCATT, the binding signal was determined as 1.13.
